In PubChem BioAssay AID1347075 (National Center for Advancing Translational Sciences (NCATS), 2019):
Out of some 400,000 compounds screened, about 5,500 (1.4%) were called active. Inconclusive means that the source gave no clear call. Such entries were picked first, then a sample of the others. Calls come from the whole dose curve; as a rule, active = well fitted cell-killing curve with a large enough effect; inconclusive = small, poorly fitted or top-dose-only effect, or effect the other way; inactive = flat fitted curve, though single readings scatter. Potencies of inconclusive entries are doubtful fits and often do not repeat.

Assay: qHTS assay for MDR1-selective chemotherapeutics: Primary screen using the parental adenocarcinoma cell KB-3-1; note: nearly all actives have a fitted effect of over 60% in size
Conditions: KB-3-1 viability, CellTiter-Glo ATP luminescence, 72 h; activity change, negative = cytotoxic: at 46.1 µM (top of the series)
Summary of the method: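 Luminescent ATP read-out (CellTiter-Glo) measures survival of drug-naive KB-3-1 cells after 72 h compound exposure at 37 °C. Titration series was screened from lowest to highest concentration, with DMSO vehicle plates as background controls.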
% is set by controls: 0 for no effect and ±100 for the full control effect; potency is the fitted concentration of half-maximal effect.

Row | SMILES | Potency | activity change, negative = cytotoxic
1 | COC(=O)c1ccc2c(c1)N(Cc1cc(C)ccc1C)C(=O)c1ccccc1S2 | inconclusive: 23.1 µM [cytotoxic, single point] | 
2 | COc1cccc(C(=O)Nc2cc(-c3cn4cccnc4n3)ccc2C)c1 | inconclusive: 11.6 µM [rising, partial curve] | 
3 | Cc1cc(N)c2cc(NC(=O)/C=C/c3ccccc3Cl)ccc2n1 | inconclusive: 29.1 µM [cytotoxic, single point] | 
4 | O=C(NCC1CCCO1)c1ccc([N+](=O)[O-])o1 (configuration not stated) | active: 20.6 µM | 
5 | N/C(=N\OC(=O)c1ccccc1Cl)c1ccccn1 | inconclusive: 17.8 µM [cytotoxic, single point] | 
6 | CC(CNC(=O)c1ccc(CSc2nc3ccncc3n2Cc2ccc(F)cc2)cc1)c1ccccc1 (configuration not stated) | inconclusive: 29.1 µM [cytotoxic, single point] | 
7 | Cc1ccc(CN2CCSc3ccc(C(=O)NCCCN4CCN(C)CC4)cc32)cc1 | inconclusive: 29.1 µM [cytotoxic, single point] | 
8 | CCN1CCc2nc3sc(C(=O)c4ccccc4)c(N)c3cc2C1 | active: 8.2 µM | 
9 | Cc1ccc(N(C(=O)c2nsc(Cl)c2Cl)C(C(=O)NC2CCCC2)c2ccc(O)cc2)cc1C (configuration not stated) | inconclusive: 9.2 µM [cytotoxic, partial curve, poor fit] | 
10 | CC1CCCC(NC(=O)CSc2n[nH]c(=O)n2Cc2ccccc2)C1C (configuration not stated) |  | inactive: -10.5%
11 | Cc1cc(NC(=O)CSc2nnc(CNC(=O)c3ccccc3)o2)no1 | inconclusive: 29.1 µM [rising, single point] | 
12 | O=S1(=O)N=C(OCc2ccccc2)c2ccccc21 |  | inactive: 41.4%
13 | Cc1[nH]n(C)c(=O)c1[N+](=O)[O-] |  | inactive: 13.2%
14 | O=C(CSc1nc2nc(-c3cccs3)cc(C(F)(F)F)c2c(=O)[nH]1)Nc1ccc(F)c(F)c1 | active: 14.6 µM | 
15 | C/C(=N\NC(=O)c1ccccc1OCCOc1ccccc1)c1ccccc1F |  | inactive: -25.7%
16 | O=C1C(Cl)=C(NCCc2ccccc2)C(=O)c2ccccc21 | inconclusive: 29.1 µM [cytotoxic, single point] | 
17 | C=CCn1c(SCC(=O)c2cccs2)nc2sc(C)cc2c1=O |  | inactive: -12.7%
18 | COC(=O)c1ccc(NC(=O)c2ccccc2N(C)S(=O)(=O)c2ccccc2)cc1 |  | inactive: -4.24%
19 | COc1ccc(S(=O)(=O)Cc2ccc(C(=O)NCc3ccco3)o2)cc1 |  | inactive: -5.37%
20 | Cc1cc(N/N=C/c2ccccc2O)c2ccccc2n1 | active: 13 µM | 
21 | O=C(Nc1ccccc1)c1ccccc1O | inconclusive: 29.1 µM [cytotoxic, single point] | 
22 | COc1ccc(OCCn2c(C(C)Oc3ccccc3)nc3ccccc32)cc1 (configuration not stated) | inconclusive: 29.1 µM [cytotoxic, single point] | 

From entry 4 to 9, as listed above:
Row | SMILES | Potency | activity change, negative = cytotoxic
4 | O=C(NCC1CCCO1)c1ccc([N+](=O)[O-])o1 (configuration not stated) | active: 20.6 µM | 
5 | N/C(=N\OC(=O)c1ccccc1Cl)c1ccccn1 | inconclusive: 17.8 µM [cytotoxic, single point] | 
6 | CC(CNC(=O)c1ccc(CSc2nc3ccncc3n2Cc2ccc(F)cc2)cc1)c1ccccc1 (configuration not stated) | inconclusive: 29.1 µM [cytotoxic, single point] | 
7 | Cc1ccc(CN2CCSc3ccc(C(=O)NCCCN4CCN(C)CC4)cc32)cc1 | inconclusive: 29.1 µM [cytotoxic, single point] | 
8 | CCN1CCc2nc3sc(C(=O)c4ccccc4)c(N)c3cc2C1 | active: 8.2 µM | 
9 | Cc1ccc(N(C(=O)c2nsc(Cl)c2Cl)C(C(=O)NC2CCCC2)c2ccc(O)cc2)cc1C (configuration not stated) | inconclusive: 9.2 µM [cytotoxic, partial curve, poor fit] | 
